PubChem BioAssay AID588590 (National Center for Advancing Translational Sciences (NCATS), 2011)
Several values for one entry are separate records, joined by “and”; a condition that tells them apart may be missing. Equal entries are not always repeated. About 4,000 (1%) of roughly 390,000 compounds were called active. The inconclusive results got no clear call from the source; some entries with a clear call stand among them for comparison. Calls follow the shape of the dose curve; as a rule, active = well fitted inhibition curve with a large enough effect; inconclusive = small, poorly fitted or top-dose-only effect, or another doubt; inactive = no such curve, though single readings can be large or run the other way. A potency beside an inconclusive call is a rough fit, not a confirmed value.

The chains behind the UniProt entries cited, without tags or fusion partners. Where a name states a change or a piece, a line headed by the entry shows the natural chain unless it says otherwise.
UniProt Q9UNA4: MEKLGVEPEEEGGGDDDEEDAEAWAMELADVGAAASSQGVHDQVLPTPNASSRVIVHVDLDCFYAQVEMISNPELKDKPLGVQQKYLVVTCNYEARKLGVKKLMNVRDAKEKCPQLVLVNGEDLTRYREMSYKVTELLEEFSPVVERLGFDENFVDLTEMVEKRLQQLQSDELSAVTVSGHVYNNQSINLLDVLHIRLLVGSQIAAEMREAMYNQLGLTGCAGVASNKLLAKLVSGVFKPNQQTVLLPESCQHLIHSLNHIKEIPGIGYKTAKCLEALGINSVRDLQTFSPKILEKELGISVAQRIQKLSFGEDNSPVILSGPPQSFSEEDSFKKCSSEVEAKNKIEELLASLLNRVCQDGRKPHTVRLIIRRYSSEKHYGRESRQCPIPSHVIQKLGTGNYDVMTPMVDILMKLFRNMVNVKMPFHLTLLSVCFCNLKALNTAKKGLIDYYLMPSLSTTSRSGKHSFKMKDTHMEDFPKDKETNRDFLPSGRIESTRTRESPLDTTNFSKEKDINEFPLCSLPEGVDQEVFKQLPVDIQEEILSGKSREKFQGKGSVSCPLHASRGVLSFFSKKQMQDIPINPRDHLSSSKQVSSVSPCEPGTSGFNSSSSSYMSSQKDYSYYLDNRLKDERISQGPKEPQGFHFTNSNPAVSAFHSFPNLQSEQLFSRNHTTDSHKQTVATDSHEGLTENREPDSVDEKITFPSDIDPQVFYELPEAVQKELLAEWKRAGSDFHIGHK

target: DNA polymerase iota (Homo sapiens) (UniProt Q9UNA4); assay: qHTS for Inhibitors of Polymerase Iota; conditions: Pol iota fluorescent replication assay, 10 min; series mostly up to 115 µM
Outline: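 Pol iota at 10 nM preincubated 15 min with compounds at room temperature; reaction started with fluorescent substrate, 50 nM final. Fluorescence read kinetically at 0 and 10 min; buffer-only wells as negative control.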
Potency is read from the fitted curve at half-maximal effect.

Q: For `C[C@]12CC[C@@H]3c4ccc(O)c(O)c4CC[C@H]3[C@@H]1CC[C@@H]2O`, which Potency is on record?
A: The Potency was inconclusive: 10 µM [inhibitor, partial curve, poor fit].

Q: How did the Potency turn out when `CCOC(=O)c1c(C)[nH]c(C)c1S(=O)(=O)N1CCC(C(=O)N2CCN(c3cccc(Cl)c3)CC2)CC1` was run?
A: Its Potency is “inactive”.

Q: Which Potency does the source give for `COc1cc(OC)c(OC)cc1/C=C1\C(=O)NC(=O)N(Cc2ccccc2)C1=O` here?
A: The Potency was inconclusive: 15.8 µM [inhibitor, partial curve, poor fit].

Q: How did the Potency turn out when `COc1ccc2c(c1)CCc1c(C(=O)Nc3c(C)nn(Cc4ccccc4C)c3C)noc1-2` was run?
A: The Potency was “inactive”.

Q: With `Cc1ccc(S(=O)(=O)N(C)C)cc1NC(=O)C(C)[N+]12CCN(CC1)CC2` (stereo unspecified) as the compound, how does the Potency read?
A: The Potency was inconclusive: 63.1 µM [inhibitor, single point].

Q: How did the Potency turn out when `Cc1ccccc1C1=NCC(=S)Nc2ccc(Cl)cc21` was run?
A: Its Potency is inconclusive: 39.8 µM [inhibitor, single point].

Q: With `O=C1NC(=O)N(Cc2ccccc2)C(=O)/C1=C\c1ccco1` as the compound, how does the Potency read?
A: Its Potency is inconclusive: 4.47 µM [inhibitor, full curve, poor fit].

Q: `Cc1cccc(NC(=O)Cn2cc(C(=O)c3ccccc3)c3ccccc32)c1` was tested. Which Potency did it give?
A: The Potency was “inactive”.

Q: For `O=C(O)/C=C\C(=O)O`, which Potency is on record?
A: Its Potency is “inactive”.

Q: How did the Potency turn out when `Cc1ccc(N2C(=O)NC(=O)C3(Cc4ccccc4N4CCN(c5ccccc5)CC43)C2=O)cc1` (stereo unspecified) was run?
A: The Potency was inconclusive: 35.5 µM [inhibitor, partial curve, poor fit].

Q: How did the Potency turn out when `CN1CCc2cc3c(c4c2C1Cc1ccccc1-4)OCO3` (stereo unspecified) was run?
A: The Potency was inconclusive: 15.8 µM [inhibitor, full curve, poor fit].

Q: For `CN(C)c1ccc(N=O)cc1`, which Potency is on record?
A: Its Potency is inconclusive: 50.1 µM [inhibitor, partial curve, poor fit].

Q: With `Cc1ccc(CC2C(=O)N(C)C(=O)N(C)C2=O)s1` as the compound, how does the Potency read?
A: Its Potency is inconclusive: 17.8 µM [inhibitor, single point].

Q: With `CP(=O)(O)CN1CCCCC1` as the compound, how does the Potency read?
A: Its Potency is inconclusive: 25.1 µM [inhibitor, full curve, poor fit].

Q: For `CCCCn1c(O)c(C(C)=NCCc2ccccc2)c(=O)[nH]c1=O`, which Potency is on record?
A: The Potency was “inactive”.

Q: `COC(=O)c1c(Sc2ccccc2)c2ccccc2n1C` was tested. Which Potency did it give?
A: Its Potency is inconclusive: 25.1 µM [inhibitor, single point].

Q: Which Potency does the source give for `S=P1(Oc2ccccc2)Nc2ccccc2N1` here?
A: Its Potency is inconclusive: 25.1 µM [inhibitor, single point].

Q: `CCN1CCN(C(=O)Cc2ccc(C)cc2)CC1` was tested. Which Potency did it give?
A: Its Potency is inconclusive: 89.1 µM [inhibitor, single point].

Q: For `CCc1n[nH]c(CCN)n1`, which Potency is on record?
A: The Potency was inconclusive: 25.1 µM [inhibitor, full curve, poor fit].

Q: For `C[C@H]1CC[C@@H]2N(C1)C[C@H]1[C@@H]3C[C@H]4[C@@H](CC(=O)[C@H]5C[C@@H](O)CC[C@@]54C)[C@@H]3CC[C@H]1[C@]2(C)O`, which Potency is on record?
A: Its Potency is inconclusive: 39.8 µM [inhibitor, single point].

Q: For `CCC(CO)(C(=O)OC1C[N+]2(C)CCC1CC2)c1ccccc1` (stereo unspecified), which Potency is on record?
A: The Potency was “inactive”.

Q: With `Cc1ccc(N2C(=O)NC(=O)/C(=C\c3cccn3C(C)(C)C)C2=O)cc1` as the compound, how does the Potency read?
A: The Potency was “inactive”.

Q: With `Cc1ccc(-n2c(=O)c3ccc(C(=O)NCc4ccccc4Cl)cc3n(CC(=O)Nc3cccc(Cl)c3)c2=O)cc1` as the compound, how does the Potency read?
A: Its Potency is inconclusive: 89.1 µM [inhibitor, single point].

Q: Which Potency does the source give for `CN1C(=O)c2ccccc2NC(=O)C1Cc1ccccc1` (stereo unspecified) here?
A: The Potency was inconclusive: 0.891 µM [inhibitor, full curve, poor fit].

Q: With `CSc1nc(Cl)c(Br)c(N2CC2)n1` as the compound, how does the Potency read?
A: The Potency was inconclusive: 31.6 µM [inhibitor, single point].

Q: How did the Potency turn out when `CCC(C)N1C(=O)NC(=O)C2(Cc3c(ccc4ccccc34)N(C)C2)C1=O` (stereo unspecified) was run?
A: The Potency was inconclusive: 31.6 µM [inhibitor, single point].

Q: `COc1ccc(NC(=O)CCn2cnc3onc(-c4ccc(F)cc4)c3c2=O)cc1OC` was tested. Which Potency did it give?
A: The Potency was inconclusive: 100 µM [inhibitor, partial curve, poor fit].

Q: How did the Potency turn out when `CN1C(=O)C(=Cc2ccccc2OCCOc2ccc([N+](=O)[O-])cc2)C(=O)N(C)C1=O` was run?
A: The Potency was inconclusive: 31.6 µM [inhibitor, single point].

Q: How did the Potency turn out when `CCOC(=O)C1CCCN(c2ccc([N+](=O)[O-])c3nonc23)C1` (stereo unspecified) was run?
A: The Potency was active: 56.2 µM.

Q: `COC(=O)C1=C(c2ccccc2OCc2ccccc2)C[C@@H]2CC[C@H]1N2C(=O)NCc1ccccc1` was tested. Which Potency did it give?
A: Its Potency is inconclusive: 89.1 µM [inhibitor, single point].

Q: Which Potency does the source give for `O=C1c2cccc3cccc(c23)C(=O)N1CCN1CCN(C(=S)Nc2ccccc2)CC1` here?
A: The Potency was inconclusive: 7.94 µM [inhibitor, partial curve, poor fit].

Q: How did the Potency turn out when `CC(C)(C)c1ccc(-c2c(C(=O)O)c(C(=O)O)c3n2CSC3)cc1` was run?
A: Its Potency is inconclusive: 14.1 µM [inhibitor, full curve].

Q: Which Potency does the source give for `C=CCC1C(=O)NC(=S)NC1=O` here?
A: The Potency was “inactive”.

Q: How did the Potency turn out when `Cc1ccc(/C=C2\C(=O)NC(=S)N(c3cccc(F)c3)C2=O)o1` was run?
A: Its Potency is inconclusive: 11.2 µM [inhibitor, full curve, poor fit].

Q: `CCCCC(=O)C1C(=O)NC(=O)NC1=O` was tested. Which Potency did it give?
A: Its Potency is inconclusive: 3.98 µM [inhibitor, partial curve, poor fit].

Q: With `CCCCCn1c(N)c(C(=O)NCCN2CCOCC2)c2nc3ccccc3nc21` as the compound, how does the Potency read?
A: The Potency was inconclusive: 0.631 µM [inhibitor, full curve, poor fit].

Q: `CCC1(C)CN(S(=O)(=O)OCC(Cl)(Cl)Cl)C(=O)N1` (stereo unspecified) was tested. Which Potency did it give?
A: Its Potency is inconclusive: 22.4 µM [inhibitor, single point].

Q: With `CC1(c2ccc(Cl)cc2Cl)OCC(Cn2cncn2)O1` (stereo unspecified) as the compound, how does the Potency read?
A: Its Potency is inconclusive: 25.1 µM [inhibitor, single point].

Q: How did the Potency turn out when `O=C(O)c1ccccc1-c1ccc(C=C2C(=O)N(c3ccccc3)C(=S)N(c3ccccc3)C2=O)o1` was run?
A: Its Potency is inconclusive: 31.6 µM [inhibitor, full curve, poor fit].

Q: Which Potency does the source give for `C[N+](C)(C)CCOP(=O)([O-])OC[C@H](O)CO` here?
A: Its Potency is inconclusive: 89.1 µM [inhibitor, partial curve, poor fit].

Q: `COCCNC(=O)Cn1cc(/C=C2\C(=O)NC(=O)N(c3cccc(C)c3C)C2=O)c2ccccc21` was tested. Which Potency did it give?
A: The Potency was “inactive”.

Q: Which Potency does the source give for `CCOC(=O)c1c(-n2c(C)cc(/C=C3/C(=O)NC(=O)N(CC)C3=O)c2C)sc2c1CCCC2` here?
A: Its Potency is inconclusive: 8.91 µM [inhibitor, partial curve].

Q: With `O=c1c(O)c(-c2ccc(O)c(O)c2)oc2cc(O)cc(O)c12` as the compound, how does the Potency read?
A: Its Potency is active: 79.4 µM and active: 562 nM.

Q: `COc1ccc(/C=C/c2nc3ccccc3c(=O)n2-c2ccc(C)cc2)cc1O` was tested. Which Potency did it give?
A: The Potency was inconclusive: 89.1 µM [inhibitor, partial curve, poor fit].

Q: `O=c1c2ccccc2nc(/C=C/c2ccc(O)cc2)n1-c1cccc(O)c1` was tested. Which Potency did it give?
A: The Potency was active: 25.1 µM.

Q: `Cc1c(OC(=O)N(C)C)ccc2c1O/C(=C\c1ccco1)C2=O` was tested. Which Potency did it give?
A: Its Potency is “inactive”.

Q: How did the Potency turn out when `O=C1NC(=O)N(CC2CCCO2)C(=O)/C1=C/c1cccs1` (stereo unspecified) was run?
A: The Potency was inconclusive: 39.8 µM [inhibitor, partial curve, poor fit].

Q: With `COc1ccc(CCNCc2ccccn2)cc1OC` as the compound, how does the Potency read?
A: The Potency was inconclusive: 89.1 µM [inhibitor, partial curve, poor fit].

Q: For `CN1CCCN(C(=O)COc2ccccc2)CC1`, which Potency is on record?
A: The Potency was “inactive”.

Q: How did the Potency turn out when `Cc1ccc(F)cc1NC(=O)c1ccc(Cn2nc(N3CCN(c4ccccc4)CC3)ccc2=O)o1` was run?
A: The Potency was inconclusive: 63.1 µM [inhibitor, partial curve, poor fit].

Q: Which Potency does the source give for `C[C@]12CC[C@@H](O)CC1=CCC1C2CC[C@@]2(C)C1C[C@@H](F)[C@@H]2O` (stereo partly specified) here?
A: The Potency was “inactive”.

Q: With `CCN(CC)C(=O)Cn1cc(/C=C2\C(=O)NC(=O)N(c3ccccc3F)C2=O)c2ccccc21` as the compound, how does the Potency read?
A: Its Potency is “inactive”.

Q: For `CN(C)P(=O)(NC(=O)c1cccn1C)N(C)C`, which Potency is on record?
A: Its Potency is inconclusive: 15.8 µM [inhibitor, full curve, poor fit].

Q: `CCCN1CCc2cccc3c2C1Cc1ccc(O)c(O)c1-3` (stereo unspecified) was tested. Which Potency did it give?
A: The Potency was inconclusive: 5.62 µM [inhibitor, partial curve].

Q: For `CC(C)N(Cc1ccco1)/N=C/c1c(O)n(Cc2ccccc2)c(=O)[nH]c1=O`, which Potency is on record?
A: Its Potency is inconclusive: 89.1 µM [inhibitor, partial curve].

Q: Which Potency does the source give for `Cc1cc(/C=C2/C(=O)NC(=O)N(c3ccccc3)C2=O)c(C)n1-c1ccc(F)cc1` here?
A: The Potency was inconclusive: 50.1 µM [inhibitor, partial curve].

Q: For `CC(=O)c1ccc(-c2ccccc2)cc1`, which Potency is on record?
A: The Potency was inconclusive: 100 µM [inhibitor, partial curve, poor fit].

Q: How did the Potency turn out when `O=C1NC(=O)N(Cc2ccc(F)cc2)C(=O)/C1=C\c1ccc(N2CCCC2)cc1` was run?
A: The Potency was active: 14.1 µM.

Q: With `Fc1ccc(Cn2nnnc2C(c2ccc(Cl)cc2)N2CC=C(c3ccc(F)cc3)CC2)cc1` (stereo unspecified) as the compound, how does the Potency read?
A: Its Potency is inconclusive: 20 µM [inhibitor, partial curve, poor fit].

Q: How did the Potency turn out when `O=C(O)c1ccc[nH]c1=S` was run?
A: Its Potency is inconclusive: 31.6 µM [inhibitor, partial curve].

Q: How did the Potency turn out when `CC(C)n1c(=O)c(C=Nc2ccc(Br)cc2)c(O)n(Cc2ccco2)c1=O` was run?
A: Its Potency is inconclusive: 17.8 µM [inhibitor, full curve].

Q: With `O=c1c2ccccc2[se]n1-c1ccccc1` as the compound, how does the Potency read?
A: Its Potency is inconclusive: 0.0016 µM [inhibitor, full curve, poor fit].

Q: How did the Potency turn out when `C[n+]1c(-c2ccccc2)c2cc(N)ccc2c2ccc(N)cc21` was run?
A: The Potency was active: 8.91 µM.

Q: How did the Potency turn out when `CCOC(=O)c1ccc2[nH]c(-c3ccc(S(=O)(=O)F)cc3)cc(=O)c2c1` was run?
A: Its Potency is inconclusive: 79.4 µM [inhibitor, partial curve].

Q: `O=C(CCc1nc(-c2ccccc2F)no1)N1CCC2(CC1)OCCO2` was tested. Which Potency did it give?
A: Its Potency is inconclusive: 100 µM [inhibitor, partial curve, poor fit].
